Measured values as given in PubChem BioAssay AID2417 (National Center for Advancing Translational Sciences (NCATS), 2010).
Out of some 140,000 compounds screened, about 4,300 (3.1%) were called active. Inconclusive results, whose numbers are uncertain, are shown with a selection of clear calls.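 The calls were made as follows: active = readout at or below -70, meaning at least 70% loss of cells showing the perinucleolar compartment, a nuclear body marking cancer cells; inconclusive = readout between -30 and a set limit; inactive = the rest.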

experiment: High Content Assay for Compounds that inhibit the Assembly of the Perinucleolar Compartment; details: PC3M PTB-GFP, PNC prevalence imaging, 16 h; at 10 µM; stronger effect = lower value;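 also: plate controls were DMSO wells for no effect and camptothecin positive control wells for full effect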
Outline: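 Compounds are pinned in duplicate onto adhered PC3M cells stably expressing GFP-tagged PTB and incubated 16 h at 37 C. Cells are then fixed, nuclei stained with Hoechst, and PNC-positive cells counted.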

Row | Structure (SMILES) | activity change (PNC), negative = inhibition
1 | CC1(C(=O)O)CCC(C(=O)Nc2ccccc2)C1(C)C (stereo not given) | inconclusive: -40.8%
2 | Cc1ccc(-c2[nH]nc3c2C(c2ccoc2)C(C#N)=C(N)O3)cc1C (stereo not given) | inconclusive: -62.4%
3 | O=C(CSc1nnc(-c2ccncc2)n1Cc1ccco1)N1c2ccccc2Sc2ccc(Cl)cc21 | active: -100%
4 | COc1ccc(OC)c(NS(=O)(=O)c2ccc(N3CCCC3=O)cc2)c1 | active: -83.3%
5 | CCCC(=O)Nc1nc(-c2ccc3c(c2)OCCO3)cs1 | inconclusive: -38.3%
6 | COC(=O)Nc1ccc(S(=O)(=O)N2CCCC(C(=O)NC3CCS(=O)(=O)C3)C2)cc1 (stereo not given) | inconclusive: -75.7%
7 | O=C(Nc1cc(Cl)ccc1O)c1cc2n(n1)C(C(F)(F)F)CC(c1ccc3c(c1)OCO3)N2 (stereo not given) | active: -84.2%
8 | COc1ccc(NC(=O)C(c2ccc(OC)cc2)N(C)C(=O)CC2NC(=O)NC2=O)cc1 (stereo not given) | inconclusive: -33.8%
9 | Cc1ccccc1-n1c(SCC(=O)c2c(N)n(C)c(=O)n(C)c2=O)nc2sc3c(c2c1=O)CCCC3 | inconclusive: -46.1%
10 | O=c1cc(-c2ccccc2)nc2nc(SCc3ccccc3)[nH]n12 | inconclusive: -52.9%
11 | CC(C)=C(NC(=O)c1ccccc1)C(=O)N1CCOCC1 | inconclusive: -36.1%
12 | CC1CCCCN1S(=O)(=O)c1ccc(N(C(=O)c2cnccn2)C(C(=O)NC2CCCC2)c2cccs2)cc1 (stereo not given) | inconclusive: -38.6%
13 | Cc1onc(-c2ccccc2Cl)c1C(=O)NCc1cccs1 | inconclusive: -57.2%
14 | Cc1ccc(S(=O)(=O)N/N=C2/CC(c3ccccc3)Oc3ccccc32)cc1[N+](=O)[O-] (stereo not given) | inactive: 15.6%
15 | Cc1cccc(NC(=S)N=Nc2c(O)n(C)c3ccc(S(=O)(=O)N4CCOCC4)cc23)c1 | inconclusive: -36.2%
16 | Cc1ccc(S(=O)(=O)NC(C)CCc2ccccc2)cc1 (stereo not given) | inactive: 21.3%
17 | O=C(CSCc1ccco1)NC1CCCC1 | inconclusive: -41.9%
18 | O=[N+]([O-])c1ccccc1/C=C/CN1CCCCC1 | inactive: -25.6%
19 | COc1ccc(NC(=O)CSc2nc(O)c(Cc3ccccc3)c(=O)[nH]2)cc1 | inconclusive: -46.1%
20 | CC(C)[C@H](NC(=O)c1ccccc1)C(=O)OCC(=O)NCCc1ccc(F)cc1 | active: -134%
21 | CCOC(=O)c1sc(=NC(=O)c2ccc(S(=O)(=O)N3CC(C)OC(C)C3)cc2)n(C)c1C (stereo not given) | inactive: -18.1%
22 | O=C(c1cc(=O)c2ccccc2o1)N1CCCc2ccccc21 | inconclusive: -53%
23 | CCOC(=O)N1CCN(C(=O)C2CCN(S(=O)(=O)N3CCCC3)CC2)CC1 | inactive: 10%
24 | Cc1ccc(C(=O)NNC(=O)CCC(=O)Nc2cccc(Cl)c2C)cc1 | inconclusive: -41.8%
25 | O=C(NC1CCS(=O)(=O)C1)c1c(NC(=O)C2COc3ccccc3O2)sc2c1CCCC2 (stereo not given) | inconclusive: -43.4%
26 | Cc1oc(-c2nc3ccccc3n2C)cc1C(=O)c1ccccc1 | inactive: -13.4%
27 | COc1ccc(NC(=O)C2CC(=O)n3ncnc3N2)cc1 (stereo not given) | inactive: -23.8%
28 | COc1cc(C(=O)/C=C/Nc2ccc(NC(C)=O)cc2)cc(OC)c1OC | active: -95.2%

Row | Structure (SMILES) | activity change (PNC), negative = inhibition
29 | CCN1CCN(c2cc(C)c3cc(NC(=O)Cc4ccccc4OC)ccc3n2)CC1 | inactive: 34.3%
30 | c1ccc(COCCN2CCN(CCOCc3ccccc3)CC2)cc1 | inconclusive: -46.9%
31 | Cc1ccc(S(=O)(=O)N(NC2=NS(=O)(=O)c3ccccc32)C(=O)c2ccccc2)cc1 | inactive: 35.5%
32 | COc1ccc(NC(=O)CSc2nccn2-c2cccc(OC)c2)cc1 | inconclusive: -48%
33 | CCOc1ccc(OCCOCCn2ccnc2)cc1 | inconclusive: -35.6%
34 | O=C(O)CSc1c(-c2cccs2)[nH]c2ccccc12 | inconclusive: -39.4%
35 | COc1ccc(-c2c(S(=O)(=O)c3ccccc3)cnn2-c2ccccc2)cc1 | inconclusive: -31.2%
36 | COCCn1c(SCC(=O)Nc2nnc(C)s2)nnc1-c1cc2ccccc2cc1O | active: -90.9%
37 | O=C(CN1C(=O)c2ccccc2S1(=O)=O)NCc1ccccc1Cl | active: -119%
38 | O=C(CSC1CCCCC1)Nc1ccccc1Br | inconclusive: -42.7%
39 | CC1=C(C(=O)Nc2ccc(C)cc2C)C(c2ccc(C)o2)NC(=S)N1 (stereo not given) | inconclusive: -40.7%
40 | Cc1ccc2cc(C#N)c(SCC(=O)N3CCCc4ccccc43)nc2c1C | inactive: 6.97%
41 | Cc1ccc2c(C)c(C(=O)Nc3c(C)n(C)n(-c4ccccc4)c3=O)oc2c1C | inactive: -6.29%
42 | CCN=C1SC(CC(=O)NCCc2ccc(OC)c(OC)c2)C(=O)N1CC (stereo not given) | inactive: 9.51%
43 | CC1(C)Cc2ccccc2-c2nnc(SCC(=O)N3CCc4ccccc43)n21 | inconclusive: -31.6%
44 | Cc1ccc(S(=O)(=O)c2nc(Nc3ccccc3C#N)sc2Cl)cc1 | inconclusive: -38.2%
45 | COc1ccc(Cc2nnc(N/N=C/c3ccccc3O)[nH]c2=O)cc1OC | active: -84.6%
46 | N#Cc1c(NC(=O)CSc2nnc(-c3ccccc3O)n2-c2ccccc2)sc2c1CCCC2 | inconclusive: -32.4%
47 | COCCNC(=O)c1cc(Br)ccc1Cl | inactive: 26.9%
48 | COc1ccc(CC(NC(C)=O)C(=O)N2CCN(C(=O)Nc3ccc(Cl)cc3)CC2)cc1OC (stereo not given) | inconclusive: -56.3%
49 | Cc1[nH]c2ccccc2c1NC(=O)CN1CCN(Cc2ccc3c(c2)OCO3)CC1 | inactive: 16.3%
50 | Cc1ccccc1NC(=O)C1Cc2ccccc2CN1C(=O)OCc1ccccc1 (stereo not given) | inconclusive: -33.1%
51 | O=Nc1c(O)n(Cc2ccc(Cl)c(Cl)c2)c2ccccc12 | inactive: 29%
52 | Cc1ccc(-c2cc3nc(-c4ccccc4)cc(N4CCC5(CC4)OCCO5)n3n2)cc1 | inconclusive: -60.1%
53 | Cc1cccc(Nc2nnc(SCC(=O)Nc3cccnc3Cl)s2)c1 | inconclusive: -31.4%
54 | COc1ccccc1N1C(=O)CC(Sc2ncccc2C(=O)O)C1=O (stereo not given) | active: -100%
55 | CC(C(=O)N1CCc2ccccc21)N1CCN(c2ccccn2)CC1 (stereo not given) | inconclusive: -32.3%

3 of the compounds above, with tabs.
Row	Structure (SMILES)	activity change (PNC), negative = inhibition
47	COCCNC(=O)c1cc(Br)ccc1Cl	inactive: 26.9%
48	COc1ccc(CC(NC(C)=O)C(=O)N2CCN(C(=O)Nc3ccc(Cl)cc3)CC2)cc1OC (stereo not given)	inconclusive: -56.3%
49	Cc1[nH]c2ccccc2c1NC(=O)CN1CCN(Cc2ccc3c(c2)OCO3)CC1	inactive: 16.3%
